Publication PMC12675575, “A BRET biosensor for measuring uncompetitive engagement of PRMT5 complexes in cells” (Nature Communications, 2025)
Values joined by “and” are separate entries in the source; they are usually repeats but may differ in a detail not shown here. Equal values may be shown once. Further values from the same series stand in other lists.

Chains of the proteins cited; added tags and fusions are not shown.
UniProt O14744, whole entry: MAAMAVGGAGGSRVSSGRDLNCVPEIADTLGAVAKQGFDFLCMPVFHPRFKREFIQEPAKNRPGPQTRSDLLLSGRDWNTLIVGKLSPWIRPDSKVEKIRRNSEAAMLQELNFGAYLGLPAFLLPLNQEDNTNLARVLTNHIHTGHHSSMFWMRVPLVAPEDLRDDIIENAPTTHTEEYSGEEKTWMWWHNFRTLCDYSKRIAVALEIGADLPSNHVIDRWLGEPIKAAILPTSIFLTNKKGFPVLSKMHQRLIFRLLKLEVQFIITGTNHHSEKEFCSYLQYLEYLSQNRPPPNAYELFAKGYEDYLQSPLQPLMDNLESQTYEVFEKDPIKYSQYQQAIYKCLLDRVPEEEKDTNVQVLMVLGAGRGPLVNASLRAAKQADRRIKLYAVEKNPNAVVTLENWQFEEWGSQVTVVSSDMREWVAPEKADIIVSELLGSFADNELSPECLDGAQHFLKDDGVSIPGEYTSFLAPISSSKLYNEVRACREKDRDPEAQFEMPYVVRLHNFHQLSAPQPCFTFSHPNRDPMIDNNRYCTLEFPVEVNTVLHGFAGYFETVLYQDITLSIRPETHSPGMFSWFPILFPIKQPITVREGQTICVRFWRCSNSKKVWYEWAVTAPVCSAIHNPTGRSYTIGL

Target: T1, NLuc-PRMT5 co-expressed with WDR77 in HCT116 MTAP wild-type cells (Homo sapiens, UniProt O14744)
T1 construct: Horizon Discovery (cells) #PAR-034 and #R02-033 (cells); host or cells: HCT116 MTAP wild-type / MTAP-/-
Experiment: Live-cell NanoBRET target engagement in HCT116 MTAP wild-type cells (NLuc-PRMT5 + WDR77)
Assay type: cell-based
Settings: Fig 5A
Description: HEK293 cells (ATCC) were cultured in DMEM (Thermo Fisher) + 10% (v/v) FBS (Seredigm), and HCT116 cells (Horizon Discovery, #PAR-034 and #R02-033) were cultured in McCoy’s 5A (Thermo Fisher) + 10% FBS, with incubation in a humidified, 37 °C/5% CO2 incubator. Cells were split 1–3 days prior to performing experiments and used at roughly 80% confluency. […] Cells were transfected according to the manufacturer’s protocol using FuGENE HD (Promega). NanoLuc fusion DNA was diluted into Transfection Carrier DNA (Promega) in Opti-MEM at a ratio of 1:9 (mass/mass), and FuGENE HD was added at a ratio of 1:3 (μg DNA:μL lipid). […] Formed complexes were combined with cells resuspended to a density of 2 × 10^5 cells/mL in Opti-MEM + 1% FBS at a ratio of 1:20 (vol:vol). […] Cells were seeded at a density of 2 × 10^5 cells/mL in Opti-MEM + 1% FBS in 100 μL (96-well). The BRET probe CBH-002 was prepared first as a 100× stock in 100% DMSO (Sigma) and then diluted to a 20× stock in NanoBRET Tracer Dilution buffer (Promega). Test compounds were prepared as 1000× stocks in 100% DMSO and diluted to 10× stocks in Opti-MEM to prepare working stocks. […] NanoBRET Complete 3x Substrate was prepared by combining Nano-Glo Substrate and Extracellular NanoLuc Inhibitor in Opti-MEM, according to the manufacturer’s protocol (Promega).
EC50 values were obtained by fitting the BRET probe and compound affinity curves to a sigmoidal four-parameter fit model in Graphpad Prism:1 Y=Ymin+Ymax−Ymin/1+10^LogEC50−Xh where h is the Hill Slope.
When normalized BRET was used, mBRET values were normalized using2 NormalizedBRET%=(Y−BRETmin)/BRETmax−BRETmin where y = mBRET in the presence of test compound and BRET probe, BRETmin = mBRET at the highest concentration (saturating) of test compound and BRET probe, and BRETmax = mBRET in the presence of vehicle (DMSO) and BRET probe.
Normalized concentration-response curves showing full competition were fit using a 2-parameter model:3 Y=100/1+10^LogEC50−Xh […]

- BRET, CBH-002 + DMSO (Log([CBH-002]) in uM -1.81): 445.3 and 435.06
- BRET, CBH-002 + DMSO (Log([CBH-002]) in uM -2.11): 234 and 269.12 and 249.34
- BRET, CBH-002 + DMSO (Log([CBH-002]) in uM -2.41): 130 and 134.31 and 128.17
SMILES: O=C(CCc1ccc2n1[B-](F)(F)[N+]1=C(c3ccc[nH]3)C=CC1=C2)NCCCCC(=O)N1CCC(Nc2cc(C(=O)NC[C@H](O)CN3CCc4ccccc4C3)ncn2)CC1 [CBH-002]
